Earlier results as cited in patent publication US6703417B2, “Aqueous-prodrug compound comprising moiety of paclitaxel or derivatives thereof, method of preparing same and pharmaceutical composition comprising same” (Kolon Industries, Inc., priority 2000, dated 2004).

- solubility in water: insoluble in water
SMILES: CC(=O)O[C@H]1C(=O)[C@@]2(C)[C@H]([C@H](OC(=O)c3ccccc3)[C@]3(O)C[C@H](OC(=O)[C@H](O)[C@@H](NC(=O)c4ccccc4)c4ccccc4)C(C)=C1C3(C)C)[C@]1(OC(C)=O)CO[C@@H]1C[C@@H]2O [Paclitaxel]
